These are yes or no findings as the source states them, for the method shown. For some assays here: In cells and extracts the contact can be indirect. Some entries that bind do so weakly or less than the wild type.
Columns and labels:
[1] = molecular target: PCTD (residues 163 to 241 of P) fused to glutathione S-transferase (respiratory syncytial virus (RSV)) (UniProt P03421); assay: pull-down; co-purification of N-RNA rings on GST-PCTD from E. coli cotransformed with pGEX-PCT and pET28-N
[2] = molecular target: RSV nucleoprotein N, wild type, N-RNA rings (respiratory syncytial virus (RSV)) (UniProt P03418); assay: native gel or EMSA; band shift on native 1% agarose gel; proteins alone or mixed, 30 min at room temperature in 20 mM tris pH 8, 150 mM NaCl; tris-glycine, 80 V, Amido black 10B staining; N-P40 at 10 and 20 μM; both purified

By UniProt entry, the sequences of proteins in these tests, tags left out. Where a name states a change or a piece, a line headed by the entry shows the natural chain unless it says otherwise. Chains listed by the source or under a name are the forms on record and can include a tag or linker. Residues count along the entry.
UniProt P03421: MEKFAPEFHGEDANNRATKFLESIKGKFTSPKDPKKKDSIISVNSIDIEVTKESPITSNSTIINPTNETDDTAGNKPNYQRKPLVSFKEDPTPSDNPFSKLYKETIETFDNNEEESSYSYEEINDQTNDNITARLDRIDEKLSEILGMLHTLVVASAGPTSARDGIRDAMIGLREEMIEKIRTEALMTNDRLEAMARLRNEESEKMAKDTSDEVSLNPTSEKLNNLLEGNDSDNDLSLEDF
PCTD (residues 163 to 241 of P) fused to glutathione S-transferase (respiratory syncytial virus (RSV)): residues 163-241 of P03421
UniProt P03418: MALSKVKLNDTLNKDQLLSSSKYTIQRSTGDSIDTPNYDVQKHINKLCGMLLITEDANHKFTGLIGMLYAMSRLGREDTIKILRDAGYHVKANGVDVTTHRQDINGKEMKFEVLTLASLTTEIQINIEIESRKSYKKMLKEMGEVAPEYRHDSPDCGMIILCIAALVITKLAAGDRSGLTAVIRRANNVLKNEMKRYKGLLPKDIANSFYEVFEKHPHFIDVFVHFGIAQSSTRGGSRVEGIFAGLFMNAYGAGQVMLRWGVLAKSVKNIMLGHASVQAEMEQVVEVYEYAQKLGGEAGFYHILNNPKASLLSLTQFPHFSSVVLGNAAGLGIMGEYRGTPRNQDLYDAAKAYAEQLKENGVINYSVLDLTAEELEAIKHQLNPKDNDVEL

Row | Substance | binding [1] | binding [2]
1 | RSV nucleoprotein N, wild type, N-RNA rings (from UniProt P03418 1-391) | binds | 
2 | RSV phosphoprotein P, full length (from UniProt P03421 1-241) |  | binds

Reference: PMC13134614, “In vitro liquid-liquid phase separation induced by respiratory syncytial virus proteins and RNA” (Science Advances, 2025)
